Results deposited as PubChem BioAssay AID1259405 (NCATS, 2018)

Purpose: 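Mouse-designed siRNAs used to find CHO productivity engineering targets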 (primary screen)
System: Chinese hamster CHO-K1 ovary cells with stable secreted eGFP expression
Knock-down reagent: single siRNA against mouse genes, 0.8 pmol siRNA per well (2 µl of 400 nM stock)
Timing: 3 days
Read-out: 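Percent of the per-plate non-targeting control median for intracellular GFP per well by laser scanning cytometry and for cell viability by ATP luminescence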
Reading the numbers: GFP, % of control: higher = more GFP per well, higher productivity; viability (ATP), % of control: higher = more viable cells (more ATP)
Hit rule: 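Called active when intracellular GFP, relative to negative control, is at or above 120%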
Here is a random part of about 50,000 reagents. In the full data, about 4,000 (8%) were called active. 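Mouse siRNA library applied to hamster cells; one well for each siRNA.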

Gene | PubChem SID | GFP, % of control | viability (ATP), % of control | Outcome
Ppm1n | SID363547572 | 132 | 88.3 | active
Ppm1n | SID363558341 | 63.2 | 53.5 | inactive
Ppm1n | SID363560099 | 73.4 | 93.9 | inactive
Cops8 | SID363550030 | 54.2 | 86.6 | inactive
Cops8 | SID363564539 | 43.1 | 68.7 | inactive
Cops8 | SID363588084 | 69.1 | 96.3 | inactive
Alg11 | SID363545092 | 34.6 | 49.9 | inactive
Alg11 | SID363548605 | 123 | 74.6 | active
Alg11 | SID363562411 | 119 | 86.4 | inactive
Xrcc3 | SID363569254 | 166 | 141 | active
Xrcc3 | SID363583686 | 75.9 | 104 | inactive
Stac2 | SID363556275 | 84.7 | 84.3 | inactive
Stac2 | SID363586725 | 62.4 | 83.8 | inactive
Stac2 | SID363588833 | 36.5 | 32 | inactive
Abr | SID363545719 | 92 | 71.8 | inactive
Abr | SID363549232 | 115 | 100 | inactive
Abr | SID363563038 | 53.2 | 41.9 | inactive
H2-M10.1 | SID363553708 | 108 | 78 | inactive
H2-M10.1 | SID363561665 | 63.1 | 70.7 | inactive
H2-M10.1 | SID363565403 | 95.4 | 82.9 | inactive
Serpinb10 | SID363573047 | 65.4 | 80.5 | inactive
Serpinb10 | SID363577623 | 70.5 | 84.1 | inactive
Serpinb10 | SID363581143 | 89.9 | 77.8 | inactive
Rpl13a | SID363553954 | 40.7 | 29.1 | inactive
Rpl13a | SID363561911 | 119 | 34.6 | inactive
Rpl13a | SID363565649 | 87 | 66.8 | inactive
Mettl1 | SID363570359 | 85.8 | 93.8 | inactive
Mettl1 | SID363579159 | 64.1 | 60.9 | inactive
Mettl1 | SID363583031 | 107 | 95.7 | inactive
Cyp4f39 | SID363547597 | 54.1 | 65.8 | inactive
Cyp4f39 | SID363558366 | 68.1 | 74.1 | inactive
Cyp4f39 | SID363560124 | 74.8 | 83.6 | inactive
Klk1b27 | SID363547414 | 140 | 99.8 | active
Klk1b27 | SID363558183 | 82.7 | 60.1 | inactive
Klk1b27 | SID363559941 | 71.3 | 65.3 | inactive
Mims2 | SID363543567 | 39.5 | 46.2 | inactive
Mims2 | SID363553060 | 85.7 | 76.1 | inactive
Mims2 | SID363558908 | 68.1 | 93.2 | inactive
9130221H12Rik | SID363552264 | 74 | 104 | inactive
9130221H12Rik | SID363585400 | 118 | 84.6 | inactive
9130221H12Rik | SID363585751 | 119 | 138 | inactive
Or7g27 | SID363554519 | 62.1 | 30.4 | inactive
Or7g27 | SID363567966 | 104 | 71 | inactive
Or7g27 | SID363586025 | 64.6 | 48.3 | inactive
Ceacam11 | SID363555186 | 127 | 111 | active
Ceacam11 | SID363563847 | 61.8 | 72.1 | inactive
Ceacam11 | SID363587393 | 72.7 | 89.8 | inactive
Or8b42 | SID363554658 | 89.7 | 74.7 | inactive
Or8b42 | SID363568105 | 73.3 | 39.4 | inactive
Or8b42 | SID363586164 | 79.5 | 111 | inactive
Csnk1g1 | SID363547400 | 97.9 | 93.9 | inactive
Csnk1g1 | SID363558169 | 72.4 | 44.5 | inactive
Csnk1g1 | SID363559927 | 72.9 | 84 | inactive
Yju2 | SID363545945 | 97.1 | 96.5 | inactive
Yju2 | SID363549458 | 76.9 | 39.8 | inactive
Yju2 | SID363563264 | 44.8 | 73 | inactive
Txnrd1 | SID363573038 | 136 | 86.6 | active
Txnrd1 | SID363577614 | 90.1 | 91.7 | inactive
Txnrd1 | SID363581134 | 92.5 | 75.6 | inactive
Kctd20 | SID363543964 | 98.5 | 78.8 | inactive
Kctd20 | SID363551700 | 37.2 | 21.2 | inactive
Kctd20 | SID363559305 | 47.3 | 68.8 | inactive
Eri1 | SID363570139 | 118 | 89 | inactive
Eri1 | SID363576475 | 110 | 76.6 | inactive
Eri1 | SID363579643 | 47.8 | 58.5 | inactive
E2f6 | SID363573364 | 77.9 | 81.5 | inactive
E2f6 | SID363588603 | 69 | 84.9 | inactive
Bpnt1 | SID363569686 | 135 | 103 | active
Bpnt1 | SID363576726 | 73.2 | 92.4 | inactive
Bpnt1 | SID363578134 | 31.9 | 15.4 | inactive
Gtf2h5 | SID363539760 | 78 | 97.2 | inactive
Gtf2h5 | SID363561061 | 43.9 | 35.3 | inactive
Gtf2h5 | SID363565151 | 31.9 | 26.4 | inactive
Il13 | SID363582402 | 77.8 | 90.9 | inactive
Il13 | SID363584162 | 82.6 | 76.9 | inactive
Zfp175 | SID363555231 | 74.3 | 56.7 | inactive
Zfp175 | SID363563892 | 87.3 | 63.9 | inactive
Zfp175 | SID363587438 | 75.6 | 60.3 | inactive
Or5j1 | SID363544508 | 88.8 | 92.2 | inactive
Or5j1 | SID363550836 | 48 | 47.7 | inactive
Or5j1 | SID363557385 | 55.6 | 48.7 | inactive
Folr2 | SID363568892 | 65.4 | 84.4 | inactive
Folr2 | SID363576284 | 47.9 | 73.7 | inactive
Folr2 | SID363579100 | 141 | 62.8 | active
Etnk2 | SID363571022 | 80.7 | 68.7 | inactive
Slc9a7 | SID363574905 | 75.6 | 74.3 | inactive
Slc9a7 | SID363575961 | 112 | 117 | inactive
Slc9a7 | SID363580537 | 54 | 61 | inactive
Or8b53 | SID363554700 | 79 | 62.3 | inactive
Or8b53 | SID363568147 | 190 | 62 | active
Or8b53 | SID363586206 | 67.6 | 91 | inactive
Or1b1 | SID363544585 | 79.8 | 78.3 | inactive
Or1b1 | SID363550913 | 77.3 | 74.2 | inactive
Or1b1 | SID363557462 | 68.4 | 44.8 | inactive
Ddx55 | SID363569666 | 68.4 | 55.7 | inactive
Ddx55 | SID363576706 | 72.2 | 77.5 | inactive
Ddx55 | SID363578114 | 127 | 130 | active
Gm9734 | SID363543851 | 88.5 | 82 | inactive
Gm9734 | SID363551587 | 41.5 | 36.9 | inactive
Gm9734 | SID363559192 | 74.4 | 58.3 | inactive
Bin3 | SID363582578 | 79.1 | 104 | inactive
Bin3 | SID363584338 | 90.1 | 67.2 | inactive
Cdhr4 | SID363539559 | 77.8 | 104 | inactive
Cdhr4 | SID363560860 | 39.3 | 49.6 | inactive
Cdhr4 | SID363564950 | 51 | 56 | inactive
Actl7a | SID363572458 | 35.1 | 32.4 | inactive
Actl7a | SID363574218 | 72 | 93.1 | inactive
